Source: PubChem BioAssay AID1671195 (Yale University, 2021)
Shown is one part, drawn at random, of about 22,000 reagents. Over the whole deposit, about 1,510 (6.9%) got an active call. 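Active includes knockdowns raising or lowering LDL uptake; positive z-scores mean more uptake, negative mean less.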 Entries without a mark were called inactive.

Test: 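Genes whose knockdown alters LDL uptake in liver cancer cells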 (primary screen)
System: human Huh7 hepatoma cells
Reagents: siRNA pool against human genes, 18 nM
Time to read-out: about 2 to 2.5 days of knockdown, then 8 h LDL uptake
Treatment: DiI-labelled LDL at 30 µg/ml for 8 h, in lipoprotein-deficient serum medium
Read-out: 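Per-cell DiI-LDL intensity by automated imaging; well means scaled to the plate median and given as a robust z-score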
Scale: robust z-score: higher = more LDL uptake after knockdown
Call rule: 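Active when two or more replicates show a robust z-score above 2 or below -2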

target | robust z-score, replicate 1 | robust z-score, replicate 2 | robust z-score, replicate 3
RPS16P8 | 0.445 | -0.684 | -1.18
SLC38A10 | -0.0313 | -0.148 | 0.389
ASPA | 0.701 | 1.56 | -0.212
ANKRD18A | -0.159 | -0.00805 | -0.0391
FFAR4 | -1.41 | -0.65 | -1.43
LRRK2 | -0.739 | 0.51 | -0.0019
PRAG1 | -0.2 | -0.215 | -0.469
CDK13 | -0.613 | -1.47 | -0.843
CDK2AP1 | 0.509 | -1.46 | 0.112
CYP24A1 | -0.359 | -0.326 | 0.227
OSM | -0.603 | -0.567 | 0.126
HAND2-AS1 | -2.31 (active) | -2.17 | -2.05
LOC388947 (retired record) | -0.426 | 0.0542 | -0.264
SRPK3 | -1.22 (active) | -2.07 | -2.03
LOC441591 (retired record) | 0.606 | 0.102 | 0.272
LETM1 | 0.782 | 0.749 | 1.1
ERAL1 | -1.25 | -1.1 | -0.391
EID3 | 0.438 | 0.624 | 0.0272
ATP6AP1 | -1.12 | -1.02 | -0.978
DNAJC8 | -0.172 | 0.129 | 0.159
AGBL5 | 1.88 | 1.29 | 2.37
VAX1 | 1.86 | 1.43 | 1.11
SMCO3 | -0.874 | -1.41 | -1.05
LOC388914 (retired record) | -0.0816 | 0.274 | 0.199
SAR1B | -0.367 | 1.49 | 0.954
PCCB | 1.47 | -0.419 | 0.102
PXDC1 | -0.112 | -0.446 | 0.0984
GSDMC | 0.0532 | -0.811 | -0.374
TAOK2 | 0.725 | -0.092 | 0.49
SAMD9 | 1.63 | 2.27 | 1.88
ANKRD30B | -0.859 | -0.298 | -0.488
CCDC66 | 0.492 | 0.622 | 0.727
KPTN | -1.03 | -1.84 | -1.04
SCNN1G | -1.44 | -1.91 | -1.82
TMUB2 | 1.08 | 0.214 | 0.78
TRIM22 | -1.05 | -1.95 | -1.03
LOC389665 (retired record) | -1.61 | -1.44 | -1.34
MS4A12 | 1 | 1.09 | 1.15
LOC440407 (retired record) | -0.49 | -0.59 | -1.01
CLEC19A | -1.34 | -0.306 | -0.237
EDEM1 | -0.104 | -0.303 | -0.0657
KLK6 | -0.372 | -0.303 | 0.0543
SUPT7L | -0.179 | 0.537 | 0.855
CCDC146 | 0.388 | -1.09 | -1.2
ZNF395 | 0.333 | -0.263 | 0.586
DFFA | 0.13 | 0.0881 | 0.821
MSTN | 0.317 | 3.09 | 1.74
KCNJ2-AS1 | 0.712 | 0.87 | 1.44
LOC388139 (retired record) | -0.124 | 0.103 | 0.26
SLC18A2 | -1.21 | -1.29 | -1.45
H3C7 | 0.682 | -0.558 | 0.271
CNTLN | 0.545 | 1.14 | 1.62
FGF7 | 1.09 | -0.707 | 0.666
PRRT2 | -0.132 | 0.495 | 0.577
TMEM102 | -0.352 | -0.317 | -0.164
BMERB1 | 2.29 (active) | 2.04 | 1.42
SNRPB2 | -1.23 | -1.13 | -1.46
NTN5 | -0.624 | -0.722 | -0.366
STS | 0.407 | -0.341 | 0.176
FMO5 | -1.59 | -0.901 | -1.33
SBNO1 | -0.685 | -2.02 | -0.749
PPIAP59 | 0.993 | 0.511 | 0.459
PCGF2 | 0.378 | 0.357 | 0.509
BASP1 | -1.52 | 0.523 | 0.257
SPRY1 | -1.05 | -1.61 | -0.958
SEZ6L | -1.47 | -0.972 | -1.92
NFATC4 | 0.76 | 1.19 | 0.518
ERMARD | -0.353 (active) | 2.7 | 2.78
